{
  "source": "patent US8287752B2",
  "about": "“Fire extinguishing and fire suppression compositions comprising unsaturated fluorocarbons” (E I du Pont de Nemours and Company, priority 2005, dated 2012)",
  "assay": "Fire extinguishing concentration by the ICI Cup Burner method",
  "conditions": "fuel n-heptane, air flow 40 liters/minute",
  "data": [
    {"smiles": "FC(F)(F)C(F)(F)CCl", "note": "[HCFC-235cb]", "values": [
      {"measurement": "FIRE EXTINGUISHING CONCENTRATION", "result": 6.2, "unit": "% vol % in air"}
    ]},
    {"smiles": "FC(F)(F)C(F)(F)F", "note": "[Code C2F6]", "values": [
      {"measurement": "FIRE EXTINGUISHING CONCENTRATION", "result": 8.7, "unit": "% vol % in air"}
    ]},
    {"smiles": "FC(F)C(F)C(F)(F)F", "note": "(centres unmarked) [HFC-236ea]", "values": [
      {"measurement": "FIRE EXTINGUISHING CONCENTRATION", "result": 10.2, "unit": "% vol % in air"}
    ]},
    {"smiles": "FC(C(F)(F)F)C(F)(F)F", "note": "[HFC-227ea]", "values": [
      {"measurement": "FIRE EXTINGUISHING CONCENTRATION", "result": 7.3, "unit": "% vol % in air"}
    ]},
    {"smiles": "FC(F)Cl", "note": "[CHF2Cl]", "values": [
      {"measurement": "FIRE EXTINGUISHING CONCENTRATION", "result": 13.6, "unit": "% vol % in air"}
    ]},
    {"smiles": "FC(F)(F)Br", "note": "[Halon1301, bromotrifluoromethane]", "values": [
      {"measurement": "FIRE EXTINGUISHING CONCENTRATION", "result": 4.2, "unit": "% vol % in air"}
    ]},
    {"smiles": "FC(F)(F)F", "note": "[CF4]", "values": [
      {"measurement": "FIRE EXTINGUISHING CONCENTRATION", "result": 20.5, "unit": "% vol % in air"}
    ]},
    {"smiles": "FC(F)(F)C=CC(F)(F)F", "note": "[Code F11E, 1,1,1,4,4,4-hexafluorobut-2-ene]", "values": [
      {"measurement": "FIRE EXTINGUISHING CONCENTRATION", "result": 5.6, "unit": "% vol % in air"}
    ]},
    {"smiles": "FC(F)(Cl)Br", "note": "[Halon1211, bromochlorodifluoromethane]", "values": [
      {"measurement": "FIRE EXTINGUISHING CONCENTRATION", "result": 6.2, "unit": "% vol % in air"}
    ]},
    {"smiles": "FC(F)(F)C=CC(F)(F)C(F)(F)C(F)(F)C(F)(F)F", "note": "[Code F14E, 1,1,1,4,4,5,5,6,6,7,7,7-dodecafluorohept-2-ene]", "values": [
      {"measurement": "FIRE EXTINGUISHING CONCENTRATION", "result": 4.7, "unit": "% vol % in air"}
    ]},
    {"smiles": "C=CC(F)(F)C(F)(F)C(F)(F)C(F)(F)F", "note": "[PFBE, 3,3,4,4,5,5,6,6,6-nonafluorohex-1-ene]", "values": [
      {"measurement": "FIRE EXTINGUISHING CONCENTRATION", "result": 5.3, "unit": "% vol % in air"}
    ]}
  ]
}
